For two molecules, binding results are on record in US20210401926A1, “PHARMACEUTICAL FORMULATIONS OF PEPTIDE INHIBITORS” (CANIMGUIDE THERAPEUTICS AB, priority 2018, published 2021).

No constants are given. Whether binding was seen depends on the method and setting. Some entries that bind do so weakly or less than the wild type.

The experiment deals with T1, P3028 (…).
T1 sequence (peptide): VFDEFKPLVEEPQNLIK
The experiment is described as follows: conclusion drawn from the PBMC activation experiments of Example 2 (cancer sera); no direct binding assay in this filing.

KKLDTFFVKLSLFTER [P28R (…)]: the binding result was “binds”. Take FFVKLS [P28 core (peptide 32230, FFVKLS)]: the binding entry is “binds”.
